PubChem BioAssay AID504774 – Drosophila RNAi Screening Center – 2011
The screen tested about 23,000 reagents; this is a random part of those that have a named target and a result. 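Values are quantile-normalised luminescence on an arbitrary scale; higher means more cells surviving MMS.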 Not all columns of the deposit are shown.

Screen: 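Knock-downs that shift viability of MMS-exposed cells relative to untreated ones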 (primary screen)
Cell system: Drosophila Kc167 cells
Reagents: long dsRNA against Drosophila genes, about 0.25 µg dsRNA per well
Duration: about 6 days: 3 days knock-down, then 3 days with or without MMS
Challenge: methyl methanesulphonate 0.004% (w/v) for 3 days after knock-down
Read-out: 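ATP-dependent luminescence as a measure of live cells in MMS-exposed wells, quantile normalised within each plate, with replicate values also given as a mean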
Scale: mean viability with MMS: higher = more surviving cells after MMS

Target gene,DRSC id,mean viability with MMS
CG32369 (GeneID 38873),DRSC10042,3.43e6
CG32369 (GeneID 38873),DRSC10834,3.54e6
Alp11 (GeneID 32496),DRSC20080,3.54e6
scrib (GeneID 44448),DRSC13774,3.49e6
scrib (GeneID 44448),DRSC15809,3.48e6
scrib (GeneID 44448),DRSC17051,3.40e6
GluRIA (GeneID 38742),DRSC11176,3.67e6
Mco3 (GeneID 43134),DRSC15926,3.67e6
CG33281 (GeneID 2768938),DRSC00421,3.51e6
Lon (GeneID 40138),DRSC11049,3.46e6

The list goes on; the last 2 above are carried over.
Target gene,DRSC id,mean viability with MMS
CG33281 (GeneID 2768938),DRSC00421,3.51e6
Lon (GeneID 40138),DRSC11049,3.46e6
Pgk (GeneID 33461),DRSC00769,3.36e6
Pgk (GeneID 33461),DRSC23340,2.46e6
CG30376 (GeneID 246576),DRSC05086,3.47e6
CG2790 (GeneID 37992),DRSC04045,3.51e6
CG7101 (GeneID 32875),DRSC20023,3.63e6
CG7101 (GeneID 32875),DRSC22845,3.57e6
CG13251 (GeneID 40286),DRSC11699,3.52e6
mah (GeneID 42988),DRSC14645,3.58e6
sax (GeneID 35731),DRSC07675,3.75e6
HPS4 (GeneID 37009),DRSC06906,3.43e6
CG33523 (GeneID 38668),DRSC09814,3.41e6
CG33523 (GeneID 38668),DRSC22155,3.54e6
Cad87A (GeneID 41441),DRSC16161,3.53e6
Unr (GeneID 38963),DRSC10761,3.64e6
Usp10 (GeneID 38103),DRSC08282,3.60e6
Usp10 (GeneID 38103),DRSC08373,3.41e6
Tret1-1 (GeneID 36248),DRSC07046,3.56e6
Tret1-1 (GeneID 36248),DRSC07048,3.37e6
